Test results reported in paper PMC6435701.
Results are given in words; binding and its absence hold for the method and conditions named. Binding seen in cells or lysates may run through a third protein. A yes stands for co-enrichment or nearness to the bait. Other partners may have been found. Each block holds one binder with its values, some of them ahead of it.

Protein sequences, listed by entry. Tags and fused reporters are not part of them.
UniProt O00429: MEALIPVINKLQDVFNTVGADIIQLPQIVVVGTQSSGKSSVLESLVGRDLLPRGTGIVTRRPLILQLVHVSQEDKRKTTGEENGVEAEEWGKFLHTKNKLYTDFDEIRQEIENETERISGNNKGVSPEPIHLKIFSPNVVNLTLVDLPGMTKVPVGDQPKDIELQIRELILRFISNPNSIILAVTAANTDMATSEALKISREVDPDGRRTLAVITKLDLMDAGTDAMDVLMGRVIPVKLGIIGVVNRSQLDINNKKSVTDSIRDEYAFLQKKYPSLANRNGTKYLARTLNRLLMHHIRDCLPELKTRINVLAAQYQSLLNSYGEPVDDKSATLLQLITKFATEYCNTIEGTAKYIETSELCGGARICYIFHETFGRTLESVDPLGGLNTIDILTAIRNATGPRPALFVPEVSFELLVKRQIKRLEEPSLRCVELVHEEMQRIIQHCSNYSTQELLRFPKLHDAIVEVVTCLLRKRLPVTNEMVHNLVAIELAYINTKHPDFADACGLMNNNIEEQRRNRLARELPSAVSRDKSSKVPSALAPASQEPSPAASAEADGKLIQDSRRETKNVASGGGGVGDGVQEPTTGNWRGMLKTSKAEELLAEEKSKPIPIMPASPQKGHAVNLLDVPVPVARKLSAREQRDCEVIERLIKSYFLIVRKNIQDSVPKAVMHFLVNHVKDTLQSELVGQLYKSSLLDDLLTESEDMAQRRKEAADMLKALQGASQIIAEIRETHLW

Columns and labels:
[1] = biological target: Dynamin-related protein 1 (human (endogenous in iPS-derived neurons, fibroblasts, postmortem brain)), O00429; assay: affinity purification with mass spectrometry; 3 mg lysate (10 mM HEPES-NaOH pH 7.9, 150 mM NaCl, 1 mM EGTA, 1% Triton X-100) of neurons derived from HD patient iPS cells, IP with anti-Drp1 antibody overnight, protein A/G beads, LC-MS/MS; hits listed are found in HD and not in normal-subject cells; conditions: remark: other sources report otherwise
[2] = biological target: Dynamin-related protein 1 (human (endogenous in iPS-derived neurons, fibroblasts, postmortem brain)) (UniProt O00429); assay: as above

binding [2]: binds
B3: Thioredoxin-dependent peroxide reductase, mitochondrial (protein, UniProt P30048 62-256)
chain: APAVTQHAPYFKGTAVVNGEFKDLSLDDFKGKYLVLFFYPLDFTFVCPTEIVAFSDKANEFHDVNCEVVAVSVDSHFSHLAWINTPRKNGGLGHMNIALLSDLTKQISRDYGVLLEGSGLALRGLFIIDPNGVIKHLSVNDLPVGRSVEETLRLVKAFQYVETHGEVCPANWTPDSPTIKPSPAASKEYFQKVNQ

binding [2]: binds
B4: Transcription factor A, mitochondrial (protein, UniProt Q00059 43-246)
chain: SSVLASCPKKPVSSYLRFSKEQLPIFKAQNPDAKTTELIRRIAQRWRELPDSKKKIYQDAYRAEWQVYKEEISRFKEQLTPSQIMSLEKEIMDKHLKRKAMTKKKELTLLGKPKRPRSAYNVYVAERFQEAKGDSPQEKLKTVKENWKNLSDSEKELYIQHAKEDETRYHNEMKSWEEQMIEVGRKDLLRRTIKKQRKYGAEEC

The remaining lines, values behind:

B1: ATPase family AAA domain-containing protein 3A, Q9NVI7-2 1-586 (protein)
chain: MSWLFGINKGPKGEGAGPPPPLPPAQPGAEGGGDRGLGDRPAPKDKWSNFDPTGLERAAKAARELEHSRYAKDALNLAQMQEQTLQLEQQSKLKEYEAAVEQLKSEQIRAQAEERRKTLSEETRQHQARAQYQDKLARQRYEDQLKQQQLLNEENLRKQEESVQKQEAMRRATVEREMELRHKNEMLRVEAEARARAKAERENADIIREQIRLKAAEHRQTVLESIRTAGTLFGEGFRAFVTDWDKVTATVAGLTLLAVGVYSAKNATLVAGRFIEARLGKPSLVRETSRITVLEALRHPIQVSRRLLSRPQDALEGVVLSPSLEARVRDIAIATRNTKKNRSLYRNILMYGPPGTGKTLFAKKLALHSGMDYAIMTGGDVAPMGREGVTAMHKLFDWANTSRRGLLLFVDEADAFLRKRATEKISEDLRATLNAFLYRTGQHSNKFMLVLASNQPEQFDWAINDRINEMVHFDLPGQEERERLVRMYFDKYVLKPATEGKQRLKLAQFDYGRKCSEVARLTEGMSGREIAQLAVSWQATAYASEDGVLTEAMMDTRVQDAVQQHQQKMCWLKAEGPGRGDEPSPS
binding [1]: binds

B2: ATP synthase subunit b, mitochondrial (protein, UniProt P24539 43-256)
chain: PVPPLPEYGGKVRYGLIPEEFFQFLYPKTGVTGPYVLGTGLILYALSKEIYVISAETFTALSVLGVMVYGIKKYGPFVADFADKLNEQKLAQLEEAKQASIQHIQNAIDTEKSQQALVQKRHYLFDVQRNNIAMALEVTYRERLYRVYKEVKNRLDYHISVQNMMRRKEQEHMINWVEKHVVQSISTQQEKETIAKCIADLKLLAKKAQAQPVM
binding [2]: binds

B5: ATP synthase subunit f, mitochondrial (protein, UniProt P56134 1-94)
chain: MASVGECPAPVPVKDKKLLEVKLGELPSWILMRDFSPSGIFGAFQRGYYRYYNKYINVKKGSISGITMVLACYVLFSYSFSYKHLKHERLRKYH
binding [2]: binds
